# Measurements reported in doi:10.1101/2021.01.27.428258.
# No constants are given. Whether binding was seen depends on the method and setting. Some binding calls cover weakened binding; strength is not graded here. Where a sequence is shown, tags or fusion partners need not be part of it.
# B1: Colicin B^1-341 GFP (domain or fragment, UniProt P05819 1-341)
# chain: MSDNEGSVPTEGIDYGDTMVVWPSTGRIPGGDVKPGGSSGLAPSMPPGWGDYSPQGIALVQSVLFPGIIRRIILDKELEEGDWSGWSVSVHSPWGNEKVSAARTVLENGLRGGLPEPSRPAAVSFARLEPASGNEQKIIRLMVTQQLEQVTDIPASQLPAAGNNVPVKYRLTDLMQNGTQYMAIIGGIPMTVPVVDAVPVPDRSRPGTNIKDVYSAPVSPNLPDLVLSVGQMNTPVRSNPEIQEDGVISETGNYVEAGYTMSSNNHDVIVRFPEGSGVSPLYISAVEILDSNSLSQRQEAENNAKDDFRVKKEQENDEKTVLTKTSEVIISVGDKVGEYLG
# Target: T1, FepA (E. coli) (UniProt P05825)
# T1 sequence: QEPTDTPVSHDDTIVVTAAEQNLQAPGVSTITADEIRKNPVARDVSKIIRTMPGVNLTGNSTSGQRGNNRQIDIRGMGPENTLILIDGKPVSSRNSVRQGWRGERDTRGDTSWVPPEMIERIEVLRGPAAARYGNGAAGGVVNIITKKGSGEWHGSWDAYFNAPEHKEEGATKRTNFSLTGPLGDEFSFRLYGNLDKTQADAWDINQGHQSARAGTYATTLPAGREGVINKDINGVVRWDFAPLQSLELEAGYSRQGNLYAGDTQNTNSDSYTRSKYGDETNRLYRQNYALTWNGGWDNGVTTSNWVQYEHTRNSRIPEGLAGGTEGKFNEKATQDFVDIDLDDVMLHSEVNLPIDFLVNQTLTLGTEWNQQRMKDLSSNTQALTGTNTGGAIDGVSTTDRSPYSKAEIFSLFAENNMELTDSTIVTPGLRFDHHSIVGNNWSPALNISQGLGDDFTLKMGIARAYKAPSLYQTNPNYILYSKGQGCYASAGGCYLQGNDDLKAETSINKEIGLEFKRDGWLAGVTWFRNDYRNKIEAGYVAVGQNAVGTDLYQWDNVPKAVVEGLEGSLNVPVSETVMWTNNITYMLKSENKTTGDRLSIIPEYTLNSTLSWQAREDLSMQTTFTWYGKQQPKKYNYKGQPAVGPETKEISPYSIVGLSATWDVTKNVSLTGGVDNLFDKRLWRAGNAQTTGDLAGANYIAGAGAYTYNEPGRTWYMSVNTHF
# Assay: fluorescence microscopy of cells labelled with fluorescent colicin
binder,measurement,value
B1,binding,binds
